For this test, the system named is HEK293A TEAD-LUC reporter. Put plainly: TEAD-luciferase reporter activity (YAP activation), robust Z score vs plate; higher = stronger YAP/TEAD activation. The note with it: 24 h. Background: A reporter such as luciferase makes a cellular process visible.

Structures can show the parent of a compound that is named as a salt. Some of the results follow. Single values are uncertain here, since repeats match poorly.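 Human kidney-derived cells stably carry a construct in which eight TEAD-binding elements drive luciferase, measured by luminescence in a drug-repurposing library screen. A hit is any compound whose signal exceeds the plate mean by more than five robust Z scores.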

For the compound `[N-]=[N+]=NCC(=O)N[C@H](CO)[C@H](O)c1ccc([N+](=O)[O-])cc1` [Azidamfenicol], the TEAD-luciferase reporter activity is inactive: 0.379 (compound concentration: 200 nM), inactive: 1.82 (compound concentration: 2 uM) and inactive: 1.58 (compound concentration: 10 uM).
Regarding `COc1cc(/C=C/C=C/C(=O)NCCN2CCC(OC(c3ccccc3)c3ccccc3)CC2)ccc1O`, the TEAD-luciferase reporter activity by setting is: (compound concentration: 200 nM) inactive: -1.93; (compound concentration: 2 uM) inactive: 0.586; (compound concentration: 10 uM) inactive: 2.
The matching figures for `CCc1ccc(C2=CC(C)(C)Sc3ccc(C#Cc4ccc(C(=O)O)cc4)cc32)cc1`: inactive: 1.27, inactive: -0.945 and inactive: -0.51.
The matching figures for `COc1ccccc1N1CCN(CC(O)COc2ccc(-c3cc(C#N)c(=O)[nH]c3C)cc2)CC1` (stereo not given): inactive: -0.513, inactive: -0.945 and inactive: -1.16.
The like results for `CC(C)(Oc1ccc(Cl)cc1)C(=O)OCCSCCCCCCCCCCSCCOC(=O)C(C)(C)Oc1ccc(Cl)cc1` [Tiafibrate] were, in that order, inactive: -0.351, inactive: 1.58 and inactive: 0.743.
Take `CC(=O)OC1CCC2(C)C(CCC3(C)C2C(=O)C=C2C4CC(C)(C(=O)O)CCC4(C)CCC23C)C1(C)C` (stereo not given) [acetoxolone aluminium salt]: the TEAD-luciferase reporter activity (compound concentration: 200 nM) was inactive: 0.403, the TEAD-luciferase reporter activity (compound concentration: 2 uM) is inactive: -1.86 and the TEAD-luciferase reporter activity (compound concentration: 10 uM) was inactive: 2.76.
Consider `O=C(CN1C(=O)c2ccccc2C1=O)NC1CCN(Cc2ccccc2)CC1`, for which the TEAD-luciferase reporter activity runs as follows: (compound concentration: 200 nM) inactive: -2.34; (compound concentration: 2 uM) inactive: -1.21; (compound concentration: 10 uM) inactive: 2.84.
Take `Nc1cc(Cl)ccc1C(=O)CC(N)C(=O)O` (stereo not given): the TEAD-luciferase reporter activity is, setting by setting: (compound concentration: 200 nM) inactive: -0.0181; (compound concentration: 2 uM) inactive: 0.121; (compound concentration: 10 uM) inactive: 0.231.
Take `COC(=O)CC[C@]1(C)[C@H]2CC[C@]3(C)[C@@H]([C@H](C)CCCC(C)C)CC[C@H]3[C@@H]2CCC12OCCO2`: the TEAD-luciferase reporter activity by setting is: (compound concentration: 200 nM) inactive: -1.64; (compound concentration: 2 uM) inactive: -0.485; (compound concentration: 10 uM) inactive: -0.722.
Consider `Cc1cc(C)cc(CC(=O)O)c1` [(3,5-dimethylphenyl)acetic acid], for which the TEAD-luciferase reporter activity (compound concentration: 200 nM) was inactive: -0.722, the TEAD-luciferase reporter activity (compound concentration: 2 uM) was inactive: 4.11 and the TEAD-luciferase reporter activity (compound concentration: 10 uM) was inactive: -1.18.
As to `CC(=O)NCC(=O)N1Cc2ccccc2CC2(CCCCN2CC2CCNC2)C1` (stereo not given), the TEAD-luciferase reporter activity (compound concentration: 200 nM) is inactive: -1.51.
Take `CCOc1ccccc1C(N)=O` [Ethenzamide]: the TEAD-luciferase reporter activity (compound concentration: 2 uM) is inactive: -0.933.
With `CCOc1ccccc1C(N)=O` [2-Ethoxybenzamide], the TEAD-luciferase reporter activity is, setting by setting: (compound concentration: 200 nM) inactive: 2.26; (compound concentration: 10 uM) inactive: -0.61.
`O=C1C=CC(O)(c2cc3ccccc3n2S(=O)(=O)c2ccccc2)C=C1`: the TEAD-luciferase reporter activity was inactive: 2.62 (compound concentration: 200 nM), inactive: 3.86 (compound concentration: 2 uM) and active: 9.39 (compound concentration: 10 uM).
With `C#CCOc1ccc(N)cc1C(=O)NCCCC` [parsalmide], the TEAD-luciferase reporter activity by setting is: (compound concentration: 200 nM) inactive: -0.618; (compound concentration: 2 uM) inactive: 0.0669; (compound concentration: 10 uM) inactive: -0.325.
For the compound `CC12CCC(CC1)C(C)(C)O2` [Eucalyptol], the TEAD-luciferase reporter activity was inactive: 0.118 (compound concentration: 200 nM), inactive: -0.862 (compound concentration: 2 uM) and inactive: 1.79 (compound concentration: 10 uM).
The matching figures for `C[C@@H]1CC2C3C[C@H](F)C4=CC(=O)C=C[C@]4(C)C3[C@@H](O)C[C@]2(C)[C@H]1C(=O)CO` (stereo not given in full): inactive: 0.949, inactive: -1.38 and inactive: 0.848.
The like results for `CCNCCCCNC[C@@H]1C[C@H]1CNCCCCNCC` were, in that order, inactive: -0.945, inactive: -1.29 and inactive: -1.47.
The matching figures for `CN(C)CCCN1C(=O)C2C(C1=O)[C@H]1C[C@@H]2CC1OC(=O)c1c[nH]c2ccccc12` (stereo not given in full): inactive: -0.898, inactive: -1.96 and inactive: -0.718.
For the compound `CC[C@H]1OC(=O)C[C@@H](O)[C@H](C)[C@@H](OC2OC(C)[C@@H](O)C(N(C)C)[C@H]2O)[C@@H](CC=O)C[C@@H](C)C(=O)/C=C/C(C)=CC1CO` (stereo not given in full) [mycaminosyl tylonolide], the TEAD-luciferase reporter activity was inactive: -1.95 (compound concentration: 200 nM), inactive: -0.319 (compound concentration: 2 uM) and inactive: 2.53 (compound concentration: 10 uM).
Turning to `CN(C)CCCC(=O)N1Cc2ccccc2CC2(CCCCN2Cc2ccccc2)C1` (stereo not given), the TEAD-luciferase reporter activity was active: 10.2 (compound concentration: 200 nM) and inactive: -0.572 (compound concentration: 10 uM).
In the case of `COc1cc2c(cc1OC)C(C)N(S(C)(=O)=O)CC2` (stereo not given), the TEAD-luciferase reporter activity is inactive: -0.33 (compound concentration: 200 nM), inactive: 1.34 (compound concentration: 2 uM) and inactive: 1.59 (compound concentration: 10 uM).
`CCc1cn([C@H]2O[C@H](CO)[C@@H](O)[C@@H]2F)c(=O)[nH]c1=O`: the TEAD-luciferase reporter activity reads like this: (compound concentration: 200 nM) inactive: 0.577; (compound concentration: 2 uM) inactive: -1.37; (compound concentration: 10 uM) inactive: -1.05.
`COc1cc(/C=C2/C(C)=C(CC(=O)NCc3ccccc3)c3cc(F)ccc32)cc(OC)c1OC`: the TEAD-luciferase reporter activity is inactive: 0.949 (compound concentration: 200 nM), inactive: 0.121 (compound concentration: 2 uM) and active: 6.02 (compound concentration: 10 uM).
The matching figures for `CCCCCCCCCCCCCCCC(=O)OCC(COC(=O)c1cccnc1)OC(=O)CCCCCCCCCCCCCCC` (stereo not given): inactive: -1.35, inactive: 0.862 and inactive: -0.198.
For the compound `COc1nsnc1NS(=O)(=O)c1ccc(N)cc1`, the TEAD-luciferase reporter activity is inactive: -0.423 (compound concentration: 200 nM), inactive: -1.62 (compound concentration: 2 uM) and inactive: 2.14 (compound concentration: 10 uM).
The matching figures for `O=C1NC(=O)C(c2ccccc2)(c2ccccc2)N1` [phenytoin sodium]: inactive: -1.63, inactive: 0.947 and inactive: 1.13.
In the case of `NC(=O)c1cc[n+](CC2=C(C(=O)[O-])N3C(=O)[C@@H](NC(=O)[C@@H](c4ccccc4)S(=O)(=O)[O-])[C@H]3SC2)cc1` [Cefsulodin sodium salt hydrate], the TEAD-luciferase reporter activity was inactive: 0.441 (compound concentration: 200 nM) and inactive: 0.599 (compound concentration: 10 uM).
In the case of `NC(=O)c1cc[n+](CC2=C(C(=O)[O-])N3C(=O)[C@@H](NC(=O)[C@@H](c4ccccc4)S(=O)(=O)[O-])[C@H]3SC2)cc1` [cefsulodin], for the setting “compound concentration: 2 uM”, the TEAD-luciferase reporter activity was inactive: 0.374.
With `O=C(NCCCOc1ccc2[nH]c(=O)ccc2c1)N(C1CC1)[C@@H]1CCCC[C@H]1O`, the TEAD-luciferase reporter activity by setting is: (compound concentration: 200 nM) inactive: -0.584; (compound concentration: 2 uM) inactive: -2.04; (compound concentration: 10 uM) active: 7.11.
In the case of `O=C(N/N=C/C=C/c1ccc([N+](=O)[O-])o1)c1ccc([N+](=O)[O-])s1`, the TEAD-luciferase reporter activity is inactive: -1.06 (compound concentration: 200 nM), inactive: -0.336 (compound concentration: 2 uM) and inactive: 1.75 (compound concentration: 10 uM).
Turning to `CCC[C@@H]1O[C@@H]2C[C@H]3[C@@H]4C[C@H](F)C5=CC(=O)CCC5(C)[C@@]4(F)[C@@H](O)CC3(C)C2(C(=O)CO)O1` (stereo not given in full), the TEAD-luciferase reporter activity by setting is: (compound concentration: 200 nM) inactive: 3.97; (compound concentration: 2 uM) inactive: 1.53; (compound concentration: 10 uM) inactive: 0.504.
In the case of `N=C(N)Nc1ccc(CNC(=O)N2CCN(C(=O)O[C@@H]3CO[C@H]4[C@@H]3OC[C@H]4OC(=O)N3CCN(C(=O)NCc4ccc(NC(=N)N)cc4)CC3)CC2)cc1`, the TEAD-luciferase reporter activity was inactive: -0.49 (compound concentration: 200 nM), inactive: 0.785 (compound concentration: 2 uM) and inactive: -0.961 (compound concentration: 10 uM).

The values are drawn from the supplement of paper PMC10735217.
